These are yes or no findings as the source states them, for the method shown. In cells and extracts the contact can be indirect. Some results given as binding are weak or reduced against the parent protein; the word gives no strength. Tags and fused reporters may be left off the sequences shown.

By UniProt entry, the sequences of proteins in these tests, tags left out.
UniProt O15027: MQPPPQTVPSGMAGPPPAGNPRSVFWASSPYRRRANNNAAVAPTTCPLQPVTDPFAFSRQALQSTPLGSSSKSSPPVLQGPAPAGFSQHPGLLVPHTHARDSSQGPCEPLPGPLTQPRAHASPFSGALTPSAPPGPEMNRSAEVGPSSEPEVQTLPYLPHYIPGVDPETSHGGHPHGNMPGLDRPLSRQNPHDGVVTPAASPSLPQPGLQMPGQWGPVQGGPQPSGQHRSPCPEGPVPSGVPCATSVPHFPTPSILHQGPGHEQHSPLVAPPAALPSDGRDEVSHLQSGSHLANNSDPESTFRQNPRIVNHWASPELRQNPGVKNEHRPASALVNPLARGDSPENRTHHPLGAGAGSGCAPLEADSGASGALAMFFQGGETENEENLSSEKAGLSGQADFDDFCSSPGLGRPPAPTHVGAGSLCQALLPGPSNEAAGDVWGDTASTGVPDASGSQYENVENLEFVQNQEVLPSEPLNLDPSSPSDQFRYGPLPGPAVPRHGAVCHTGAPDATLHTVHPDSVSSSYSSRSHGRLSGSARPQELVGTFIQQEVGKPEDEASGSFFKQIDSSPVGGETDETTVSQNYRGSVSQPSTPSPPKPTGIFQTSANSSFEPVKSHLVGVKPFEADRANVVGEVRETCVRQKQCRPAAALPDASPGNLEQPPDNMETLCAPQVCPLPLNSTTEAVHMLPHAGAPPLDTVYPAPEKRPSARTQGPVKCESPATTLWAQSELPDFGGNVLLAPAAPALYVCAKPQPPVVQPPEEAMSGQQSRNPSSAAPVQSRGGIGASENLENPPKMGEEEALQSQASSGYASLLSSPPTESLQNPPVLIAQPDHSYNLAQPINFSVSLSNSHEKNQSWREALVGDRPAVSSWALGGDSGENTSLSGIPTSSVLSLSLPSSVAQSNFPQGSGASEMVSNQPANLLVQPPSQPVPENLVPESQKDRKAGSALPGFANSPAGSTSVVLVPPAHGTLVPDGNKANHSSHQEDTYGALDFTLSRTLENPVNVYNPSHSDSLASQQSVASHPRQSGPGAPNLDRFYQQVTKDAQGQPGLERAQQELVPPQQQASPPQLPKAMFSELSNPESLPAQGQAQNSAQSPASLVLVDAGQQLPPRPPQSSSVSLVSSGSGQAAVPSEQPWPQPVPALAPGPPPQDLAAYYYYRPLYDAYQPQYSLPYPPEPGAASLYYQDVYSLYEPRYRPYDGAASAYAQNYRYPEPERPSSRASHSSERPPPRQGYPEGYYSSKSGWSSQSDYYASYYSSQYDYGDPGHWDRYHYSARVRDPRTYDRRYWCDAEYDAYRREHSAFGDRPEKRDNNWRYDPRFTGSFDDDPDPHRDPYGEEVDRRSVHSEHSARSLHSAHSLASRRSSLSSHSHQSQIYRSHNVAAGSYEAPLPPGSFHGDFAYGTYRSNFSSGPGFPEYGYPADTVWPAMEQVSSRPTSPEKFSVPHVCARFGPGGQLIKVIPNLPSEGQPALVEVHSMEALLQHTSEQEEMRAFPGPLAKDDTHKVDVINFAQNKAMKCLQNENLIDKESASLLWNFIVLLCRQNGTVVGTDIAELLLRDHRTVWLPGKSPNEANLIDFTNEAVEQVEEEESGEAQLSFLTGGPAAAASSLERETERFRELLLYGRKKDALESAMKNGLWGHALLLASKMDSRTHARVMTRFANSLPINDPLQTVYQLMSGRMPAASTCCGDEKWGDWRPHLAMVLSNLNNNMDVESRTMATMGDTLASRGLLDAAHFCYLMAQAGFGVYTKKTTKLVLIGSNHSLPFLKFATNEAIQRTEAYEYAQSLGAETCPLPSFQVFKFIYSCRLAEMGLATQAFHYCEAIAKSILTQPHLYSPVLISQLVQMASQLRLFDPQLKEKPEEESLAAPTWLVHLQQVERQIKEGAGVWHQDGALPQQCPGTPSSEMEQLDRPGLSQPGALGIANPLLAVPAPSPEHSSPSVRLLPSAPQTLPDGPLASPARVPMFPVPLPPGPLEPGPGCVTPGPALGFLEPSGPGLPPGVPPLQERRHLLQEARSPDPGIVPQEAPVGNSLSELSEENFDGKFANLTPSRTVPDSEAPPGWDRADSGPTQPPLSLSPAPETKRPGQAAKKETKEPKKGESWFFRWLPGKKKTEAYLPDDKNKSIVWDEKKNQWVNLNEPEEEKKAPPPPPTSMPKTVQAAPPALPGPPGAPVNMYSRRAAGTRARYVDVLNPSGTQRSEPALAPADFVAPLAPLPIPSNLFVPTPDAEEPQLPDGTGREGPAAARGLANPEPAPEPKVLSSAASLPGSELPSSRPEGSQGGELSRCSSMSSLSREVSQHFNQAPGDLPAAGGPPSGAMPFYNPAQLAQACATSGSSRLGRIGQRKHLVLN

Experiment [1] addresses EGFP-Sec16A (UniProt O15027). As to the kind of experiment: co-IP; tagged proteins co-expressed in 293T cells; immunoprecipitation of whole cell extracts and immunoblot. For orientation: A western blot detects proteins with antibodies after separation by electrophoresis.
In experiment [2] the target is T1, FLAG-TRAF2 (UniProt Q12933).
T1 sequence: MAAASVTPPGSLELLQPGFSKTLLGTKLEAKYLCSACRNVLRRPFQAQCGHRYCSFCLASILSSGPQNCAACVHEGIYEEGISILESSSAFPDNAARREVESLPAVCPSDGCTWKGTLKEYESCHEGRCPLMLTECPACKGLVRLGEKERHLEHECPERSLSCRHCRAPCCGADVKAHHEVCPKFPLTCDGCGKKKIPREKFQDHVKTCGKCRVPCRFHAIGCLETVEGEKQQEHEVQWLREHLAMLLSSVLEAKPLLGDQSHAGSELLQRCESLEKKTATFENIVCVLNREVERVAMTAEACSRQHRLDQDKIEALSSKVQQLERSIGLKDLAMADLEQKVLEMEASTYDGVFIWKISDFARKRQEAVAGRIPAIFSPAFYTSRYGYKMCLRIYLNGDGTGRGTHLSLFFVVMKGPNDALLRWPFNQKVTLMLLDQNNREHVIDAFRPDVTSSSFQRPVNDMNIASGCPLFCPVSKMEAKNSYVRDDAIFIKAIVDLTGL
The experiment is described as above.

B1: Myc-p115 (protein, UniProt O60763 1-962)
chain: MNFLRGVMGGQSAGPQHTEAETIQKLCDRVASSTLLDDRRNAVRALKSLSKKYRLEVGIQAMEHLIHVLQTDRSDSEIIGYALDTLYNIISNEEEEEVEENSTRQSEDLGSQFTEIFIKQQENVTLLLSLLEEFDFHVRWPGVKLLTSLLKQLGPQVQQIILVSPMGVSRLMDLLADSREVIRNDGVLLLQALTRSNGAIQKIVAFENAFERLLDIISEEGNSDGGIVVEDCLILLQNLLKNNNSNQNFFKEGSYIQRMKPWFEVGDENSGWSAQKVTNLHLMLQLVRVLVSPTNPPGATSSCQKAMFQCGLLQQLCTILMATGVPADILTETINTVSEVIRGCQVNQDYFASVNAPSNPPRPAIVVLLMSMVNERQPFVLRCAVLYCFQCFLYKNQKGQGEIVSTLLPSTIDATGNSVSAGQLLCGGLFSTDSLSNWCAAVALAHALQENATQKEQLLRVQLATSIGNPPVSLLQQCTNILSQGSKIQTRVGLLMLLCTWLSNCPIAVTHFLHNSANVPFLTGQIAENLGEEEQLVQGLCALLLGISIYFNDNSLESYMKEKLKQLIEKRIGKENFIEKLGFISKHELYSRASQKPQPNFPSPEYMIFDHEFTKLVKELEGVITKAIYKSSEEDKKEEEVKKTLEQHDNIVTHYKNMIREQDLQLEELRQQVSTLKCQNEQLQTAVTQQVSQIQQHKDQYNLLKIQLGKDNQHQGSYSEGAQMNGIQPEEIGRLREEIEELKRNQELLQSQLTEKDSMIENMKSSQTSGTNEQSSAIVSARDSEQVAELKQELATLKSQLNSQSVEITKLQTEKQELLQKTEAFAKSVEVQGETETIIATKTTDVEGRLSALLQETKELKNEIKALSEERTAIKEQLDSSNSTIAILQTEKDKLELEITDSKKEQDDLLVLLADQDQKILSLKNKLKDLGHPVEEEDELESGDQEDEDDESEDPGKDLDHI
B1: the binding entry in experiment [1] is recorded as “binds”; in experiment [2], “no binding”.

These data come from paper PMC3390413.
